The record followed here is article PMC11005711.

Sequences of proteins named here, by UniProt entry; tags and fusion partners are left off.
UniProt P11142: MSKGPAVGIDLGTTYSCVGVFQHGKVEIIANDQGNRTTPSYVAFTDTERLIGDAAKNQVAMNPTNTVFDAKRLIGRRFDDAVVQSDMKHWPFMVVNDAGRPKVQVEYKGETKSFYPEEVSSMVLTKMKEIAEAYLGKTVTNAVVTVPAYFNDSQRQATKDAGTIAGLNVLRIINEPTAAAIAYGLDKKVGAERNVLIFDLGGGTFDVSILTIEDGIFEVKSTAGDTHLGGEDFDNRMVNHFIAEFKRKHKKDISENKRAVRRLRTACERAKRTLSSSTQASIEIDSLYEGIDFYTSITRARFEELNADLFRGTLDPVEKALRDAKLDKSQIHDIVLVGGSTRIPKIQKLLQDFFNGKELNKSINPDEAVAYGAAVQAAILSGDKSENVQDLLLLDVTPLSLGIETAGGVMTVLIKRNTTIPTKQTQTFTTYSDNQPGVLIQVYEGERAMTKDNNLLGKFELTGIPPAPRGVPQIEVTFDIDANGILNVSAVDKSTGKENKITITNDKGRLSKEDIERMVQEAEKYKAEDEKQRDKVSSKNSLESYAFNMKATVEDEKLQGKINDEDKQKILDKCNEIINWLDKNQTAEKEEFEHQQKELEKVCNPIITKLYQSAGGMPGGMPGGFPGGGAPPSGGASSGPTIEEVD

Results are given in words; binding and its absence hold for the method and conditions named. In cells and extracts the contact can be indirect. Some entries that bind do so weakly or less than the wild type. For part of these data: Where a sequence is shown, tags or fusion partners need not be part of it.

The target in assay [1] is T1, Flag-Mfn2 with deletion of amino acids 649–693 (UniProt Q80U63).
T1 sequence: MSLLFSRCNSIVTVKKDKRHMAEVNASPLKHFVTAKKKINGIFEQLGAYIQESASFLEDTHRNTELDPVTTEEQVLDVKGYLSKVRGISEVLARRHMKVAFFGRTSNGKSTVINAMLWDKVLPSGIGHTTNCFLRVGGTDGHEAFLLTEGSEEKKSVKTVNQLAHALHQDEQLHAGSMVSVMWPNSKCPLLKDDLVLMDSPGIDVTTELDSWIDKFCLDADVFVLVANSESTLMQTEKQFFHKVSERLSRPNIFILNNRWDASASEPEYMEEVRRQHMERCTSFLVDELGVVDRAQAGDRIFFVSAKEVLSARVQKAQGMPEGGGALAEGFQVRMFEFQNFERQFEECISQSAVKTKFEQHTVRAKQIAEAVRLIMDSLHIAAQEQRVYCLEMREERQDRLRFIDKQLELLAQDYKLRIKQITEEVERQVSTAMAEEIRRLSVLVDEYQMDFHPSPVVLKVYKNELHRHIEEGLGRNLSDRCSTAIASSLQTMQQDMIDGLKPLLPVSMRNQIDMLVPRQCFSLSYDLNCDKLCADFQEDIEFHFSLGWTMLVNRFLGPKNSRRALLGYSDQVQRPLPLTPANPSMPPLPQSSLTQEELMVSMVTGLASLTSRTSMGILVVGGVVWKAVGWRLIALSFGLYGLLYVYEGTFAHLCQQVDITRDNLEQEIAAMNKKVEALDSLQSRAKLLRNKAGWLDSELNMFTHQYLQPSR
The experiment in a line: co-IP; 293T cells transfected with wild-type Flag-Mfn2 or its deletion mutants, immunoprecipitation.

A further assay addresses T2, Flag-Mfn2, wild type (UniProt Q80U63).
T2 sequence: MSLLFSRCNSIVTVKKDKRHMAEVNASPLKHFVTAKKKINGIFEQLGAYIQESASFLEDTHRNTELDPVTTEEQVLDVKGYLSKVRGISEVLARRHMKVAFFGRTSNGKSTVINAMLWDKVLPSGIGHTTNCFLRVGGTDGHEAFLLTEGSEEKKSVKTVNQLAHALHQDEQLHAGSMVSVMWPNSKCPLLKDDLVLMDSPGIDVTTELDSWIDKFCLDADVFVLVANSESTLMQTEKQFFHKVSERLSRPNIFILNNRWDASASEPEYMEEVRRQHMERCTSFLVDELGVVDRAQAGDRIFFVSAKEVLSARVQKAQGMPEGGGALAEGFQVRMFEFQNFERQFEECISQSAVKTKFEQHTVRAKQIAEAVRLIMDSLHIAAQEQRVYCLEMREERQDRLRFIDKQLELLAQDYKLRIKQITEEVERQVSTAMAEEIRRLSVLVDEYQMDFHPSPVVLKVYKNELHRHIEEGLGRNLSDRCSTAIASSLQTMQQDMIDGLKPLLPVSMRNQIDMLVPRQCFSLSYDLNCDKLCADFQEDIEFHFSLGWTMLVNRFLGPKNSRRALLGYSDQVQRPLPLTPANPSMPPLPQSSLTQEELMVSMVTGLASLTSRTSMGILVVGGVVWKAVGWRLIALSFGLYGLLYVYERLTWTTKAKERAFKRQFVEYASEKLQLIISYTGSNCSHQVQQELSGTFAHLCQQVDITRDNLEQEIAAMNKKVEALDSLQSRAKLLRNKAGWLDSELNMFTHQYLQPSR
The description is as above.

The target in assay [2] is T3, Mfn2, endogenous in human atrial tissue (human (endogenous in human atrial tissue)) (UniProt O95140).
T3 sequence: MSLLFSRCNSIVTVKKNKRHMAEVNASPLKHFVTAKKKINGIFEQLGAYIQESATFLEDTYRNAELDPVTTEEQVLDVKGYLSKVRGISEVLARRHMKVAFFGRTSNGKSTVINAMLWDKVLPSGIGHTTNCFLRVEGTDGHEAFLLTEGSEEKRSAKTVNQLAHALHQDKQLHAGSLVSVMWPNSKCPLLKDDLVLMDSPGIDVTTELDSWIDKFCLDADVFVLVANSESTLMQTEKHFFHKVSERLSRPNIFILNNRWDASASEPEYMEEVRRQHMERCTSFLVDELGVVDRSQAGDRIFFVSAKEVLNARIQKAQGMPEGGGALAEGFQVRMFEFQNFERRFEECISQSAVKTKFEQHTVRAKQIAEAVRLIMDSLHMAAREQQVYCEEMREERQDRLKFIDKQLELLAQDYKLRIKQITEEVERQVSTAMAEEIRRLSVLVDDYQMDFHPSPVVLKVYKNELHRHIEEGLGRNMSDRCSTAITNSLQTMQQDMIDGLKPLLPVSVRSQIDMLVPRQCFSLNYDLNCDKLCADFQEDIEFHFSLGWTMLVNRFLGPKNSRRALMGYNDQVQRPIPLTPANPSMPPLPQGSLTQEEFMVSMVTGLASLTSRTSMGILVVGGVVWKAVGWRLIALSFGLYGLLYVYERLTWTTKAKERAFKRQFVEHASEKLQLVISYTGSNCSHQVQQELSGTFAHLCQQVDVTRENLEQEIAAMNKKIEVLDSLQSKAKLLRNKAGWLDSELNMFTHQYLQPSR
The experiment in a line: co-IP; IP assay in human atrial tissue from obese and non-obese individuals.

For “Hsc70 in 293T cells (from UniProt P11142 1-646)”, the binding entry in assay [1] is recorded as “no binding”; with Flag-Mfn2, wild type, “binds”.
In the case of “Hsc70, endogenous in human atrial tissue (from UniProt P11142 1-646)”, the binding entry in assay [2] is on record as “binds”.
